Assay: Mouse liver microsomes assay
Assay type: in vitro ADME
Conditions: CD-1, mouse, 3 μM, pH 7.4
Method: Mouse Liver Microsomes: […] […] Controls were processed and analyzed like test compounds. […] The relative percent remaining was calculated using: Relative % remaining=[…]=0*100. […] Metabolism data averaged duplicates.

CN(C)CCOC(c1ccccc1)c1ccccc1 [Diphenhydramine, diphenhydramine, reference compound]
Relative % remaining, mouse liver microsomes (10 min): 64 ± 3.1%
Relative % remaining, mouse liver microsomes (0.5 h): 25 ± 4.1%

From patent US11649235B2, “Pan-tropic entry inhibitors” (Emory University, priority 2018, dated 2023)
